Test results reported in paper doi:10.1101/2025.07.27.666075.
No constants are given. Whether binding was seen depends on the method and setting. In cells and extracts the contact can be indirect. Some results given as binding are weak or reduced against the parent protein; the word gives no strength.

Protein sequences, listed by entry. Tags and fused reporters are not part of them.
UniProt Q15154: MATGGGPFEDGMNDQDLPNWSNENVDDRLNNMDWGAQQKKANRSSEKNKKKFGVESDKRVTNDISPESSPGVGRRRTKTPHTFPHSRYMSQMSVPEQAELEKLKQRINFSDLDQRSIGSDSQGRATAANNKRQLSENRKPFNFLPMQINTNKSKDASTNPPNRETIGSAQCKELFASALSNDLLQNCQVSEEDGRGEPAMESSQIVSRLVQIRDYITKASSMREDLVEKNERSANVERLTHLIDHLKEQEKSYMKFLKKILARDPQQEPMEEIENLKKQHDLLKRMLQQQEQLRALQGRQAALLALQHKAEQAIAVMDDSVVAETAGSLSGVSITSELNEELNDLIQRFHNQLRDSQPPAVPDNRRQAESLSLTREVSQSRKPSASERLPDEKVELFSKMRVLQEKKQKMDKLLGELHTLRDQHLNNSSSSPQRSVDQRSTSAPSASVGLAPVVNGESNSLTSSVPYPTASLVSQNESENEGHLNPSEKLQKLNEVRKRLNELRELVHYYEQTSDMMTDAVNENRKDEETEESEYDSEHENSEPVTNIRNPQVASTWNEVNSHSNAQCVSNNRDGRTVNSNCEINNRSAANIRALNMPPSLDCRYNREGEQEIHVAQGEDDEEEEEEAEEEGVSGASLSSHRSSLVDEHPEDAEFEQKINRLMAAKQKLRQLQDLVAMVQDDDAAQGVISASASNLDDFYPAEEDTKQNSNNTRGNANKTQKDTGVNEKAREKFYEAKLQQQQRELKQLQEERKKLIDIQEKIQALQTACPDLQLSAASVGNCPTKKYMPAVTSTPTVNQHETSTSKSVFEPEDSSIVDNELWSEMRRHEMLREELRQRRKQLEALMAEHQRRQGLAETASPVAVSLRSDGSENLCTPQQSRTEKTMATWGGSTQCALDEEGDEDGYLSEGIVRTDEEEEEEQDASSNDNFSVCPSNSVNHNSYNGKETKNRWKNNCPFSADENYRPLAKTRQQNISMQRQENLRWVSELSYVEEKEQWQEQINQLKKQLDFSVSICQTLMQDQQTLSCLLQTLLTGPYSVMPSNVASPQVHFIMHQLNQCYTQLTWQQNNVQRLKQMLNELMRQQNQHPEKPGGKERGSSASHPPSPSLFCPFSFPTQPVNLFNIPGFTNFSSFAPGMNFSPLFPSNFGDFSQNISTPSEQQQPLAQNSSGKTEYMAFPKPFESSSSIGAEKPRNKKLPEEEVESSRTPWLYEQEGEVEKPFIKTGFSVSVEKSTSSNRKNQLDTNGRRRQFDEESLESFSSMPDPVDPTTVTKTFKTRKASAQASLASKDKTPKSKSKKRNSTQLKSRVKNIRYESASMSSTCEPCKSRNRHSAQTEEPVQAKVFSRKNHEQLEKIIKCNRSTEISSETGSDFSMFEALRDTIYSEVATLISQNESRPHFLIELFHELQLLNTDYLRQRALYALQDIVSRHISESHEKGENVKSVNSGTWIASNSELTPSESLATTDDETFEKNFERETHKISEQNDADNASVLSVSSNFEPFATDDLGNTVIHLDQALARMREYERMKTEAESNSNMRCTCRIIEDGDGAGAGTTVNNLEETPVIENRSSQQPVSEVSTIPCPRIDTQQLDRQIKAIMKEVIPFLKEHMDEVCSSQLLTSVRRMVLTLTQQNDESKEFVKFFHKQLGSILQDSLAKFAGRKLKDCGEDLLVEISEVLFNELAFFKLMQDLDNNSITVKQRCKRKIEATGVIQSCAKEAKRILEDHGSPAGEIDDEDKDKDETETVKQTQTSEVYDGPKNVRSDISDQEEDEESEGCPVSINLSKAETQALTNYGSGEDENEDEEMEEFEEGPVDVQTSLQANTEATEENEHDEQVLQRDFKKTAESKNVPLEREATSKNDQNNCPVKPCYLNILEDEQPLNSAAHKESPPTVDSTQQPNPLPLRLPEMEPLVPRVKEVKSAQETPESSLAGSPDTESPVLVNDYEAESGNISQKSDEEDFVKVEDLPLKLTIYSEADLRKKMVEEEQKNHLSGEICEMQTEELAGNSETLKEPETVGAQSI
UniProt O15078: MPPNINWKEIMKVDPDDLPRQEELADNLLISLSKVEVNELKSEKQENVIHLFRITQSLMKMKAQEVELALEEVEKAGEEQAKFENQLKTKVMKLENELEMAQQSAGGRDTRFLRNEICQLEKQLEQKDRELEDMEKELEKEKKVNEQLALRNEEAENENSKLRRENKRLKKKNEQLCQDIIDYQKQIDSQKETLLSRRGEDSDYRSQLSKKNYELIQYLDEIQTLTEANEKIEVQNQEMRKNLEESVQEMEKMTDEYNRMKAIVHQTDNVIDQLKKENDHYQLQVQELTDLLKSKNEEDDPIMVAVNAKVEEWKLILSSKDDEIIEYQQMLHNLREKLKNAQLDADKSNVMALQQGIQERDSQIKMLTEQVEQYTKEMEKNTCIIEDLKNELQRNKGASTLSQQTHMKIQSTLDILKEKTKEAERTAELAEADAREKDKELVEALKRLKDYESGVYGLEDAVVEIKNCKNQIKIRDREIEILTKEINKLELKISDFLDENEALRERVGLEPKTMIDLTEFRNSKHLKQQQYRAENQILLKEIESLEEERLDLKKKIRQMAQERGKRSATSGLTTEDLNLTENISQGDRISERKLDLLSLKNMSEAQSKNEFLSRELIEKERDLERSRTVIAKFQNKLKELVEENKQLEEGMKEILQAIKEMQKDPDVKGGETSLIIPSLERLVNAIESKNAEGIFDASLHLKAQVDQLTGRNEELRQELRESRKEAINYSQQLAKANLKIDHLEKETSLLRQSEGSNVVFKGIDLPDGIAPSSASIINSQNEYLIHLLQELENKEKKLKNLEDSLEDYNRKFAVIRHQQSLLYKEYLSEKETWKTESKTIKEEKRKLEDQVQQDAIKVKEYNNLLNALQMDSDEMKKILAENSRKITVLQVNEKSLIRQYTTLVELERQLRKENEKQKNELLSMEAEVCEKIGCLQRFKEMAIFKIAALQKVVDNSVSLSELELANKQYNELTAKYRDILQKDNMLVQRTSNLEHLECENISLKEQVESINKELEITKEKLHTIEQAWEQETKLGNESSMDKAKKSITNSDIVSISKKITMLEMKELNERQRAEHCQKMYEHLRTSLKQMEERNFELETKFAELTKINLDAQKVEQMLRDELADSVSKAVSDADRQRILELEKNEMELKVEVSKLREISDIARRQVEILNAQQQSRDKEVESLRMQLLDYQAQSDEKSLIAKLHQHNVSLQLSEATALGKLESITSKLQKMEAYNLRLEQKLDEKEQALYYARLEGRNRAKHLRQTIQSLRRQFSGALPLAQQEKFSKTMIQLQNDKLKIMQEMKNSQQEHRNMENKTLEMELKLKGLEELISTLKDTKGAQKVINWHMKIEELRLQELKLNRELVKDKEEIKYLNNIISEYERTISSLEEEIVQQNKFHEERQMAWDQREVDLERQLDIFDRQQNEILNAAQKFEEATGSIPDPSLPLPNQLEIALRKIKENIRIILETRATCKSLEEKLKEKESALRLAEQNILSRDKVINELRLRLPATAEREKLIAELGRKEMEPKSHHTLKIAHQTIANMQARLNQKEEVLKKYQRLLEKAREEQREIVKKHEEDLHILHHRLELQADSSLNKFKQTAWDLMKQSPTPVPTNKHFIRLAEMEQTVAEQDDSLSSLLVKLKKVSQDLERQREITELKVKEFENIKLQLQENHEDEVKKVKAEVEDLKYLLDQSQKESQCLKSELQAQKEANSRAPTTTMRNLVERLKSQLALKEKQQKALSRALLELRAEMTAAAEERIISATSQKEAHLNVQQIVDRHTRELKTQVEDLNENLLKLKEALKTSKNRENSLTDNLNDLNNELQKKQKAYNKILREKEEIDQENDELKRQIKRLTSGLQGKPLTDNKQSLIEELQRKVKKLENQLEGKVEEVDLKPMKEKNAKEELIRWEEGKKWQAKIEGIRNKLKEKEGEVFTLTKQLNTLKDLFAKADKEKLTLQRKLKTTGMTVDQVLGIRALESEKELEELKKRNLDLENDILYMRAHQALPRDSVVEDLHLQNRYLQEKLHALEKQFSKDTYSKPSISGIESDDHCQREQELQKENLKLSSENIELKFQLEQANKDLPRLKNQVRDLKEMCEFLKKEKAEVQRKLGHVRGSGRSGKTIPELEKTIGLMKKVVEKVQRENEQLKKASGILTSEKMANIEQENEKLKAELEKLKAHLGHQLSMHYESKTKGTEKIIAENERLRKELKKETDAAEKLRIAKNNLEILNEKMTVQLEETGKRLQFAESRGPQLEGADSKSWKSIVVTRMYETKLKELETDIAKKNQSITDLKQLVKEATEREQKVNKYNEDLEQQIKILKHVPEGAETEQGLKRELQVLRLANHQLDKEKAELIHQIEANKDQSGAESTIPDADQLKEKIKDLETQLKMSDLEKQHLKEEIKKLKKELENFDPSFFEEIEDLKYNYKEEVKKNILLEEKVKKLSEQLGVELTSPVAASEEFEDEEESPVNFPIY

biological target: FLAG-PCM1 (Pericentriolar Material-1) (human) (UniProt Q15154); experiment: co-IP

| binding | Molecule |
| --- | --- |
| binds | CEP290 (from UniProt O15078 1-2479) |
| binds | KIAA0753 (protein, UniProt Q2KHM9 1-967) MGPGQPASTCVHLAPRTQLDGRSDPKVLQTQNQLQFNRNVPTHSSNLAIRYSCPHAIRIEKLKHSYNESYHCKDADCRVGPDLGSSVSFSVISQERLSYAVHLARRDVKRRQFEKHIKEHHLRSQPQSSQKCGHTKYKIPDHRVERKESKSQAACQCSHQPSKVEISSSGAKVYLYSSHPGQSDLTVPNSPPTHDPGLQPHPRIGDHKNISEQKSLLEVQRLQKELSSCIHKIEEVTKKDRLEEALDPDEERRIRIRRQEQAARSARMLYVLQQQVKEIQEELDKLSPHKIKHTKKSWAMSKLAAAHRGAIRALQMFVTQFTDRGEHPLPARCKELGSLIRQLSLCSVKLDADPSVPDVVIDILQQIEALESLLEKKLSPKKVKKCFSEIRSRFPIGSQKALERWPSTSPKGERRPLTAKDTFPQETSRPSVAKQLLADKYQPDTELPETQRLQSELDVLDADIVLEEGPFILDQSASFKDEVLAVAKTKAGKKKPVTENVPFRKKDTLAPARQQGLRKAERGRQSQPHSKSRVQQTTVSSRLKMNRQPVKDRKAPWIPPNPTSPPASPKCAAWLKVKTSPRDATKEPLQQEDPQEESHLTGAVEHEAARLAWLDAETSKRLKELEELKAKEIDSMQKQRLDWLDAETSRRTKELNELKAEEMYRLQQLSVSATHLADKVEEAVLDRLKPLLVKAQRVNSTTEANIHLKDGSSVNTAKAQPAQEVAAVDFESNNIRQLDDFLEDCASELWAVTHAKILGSETLATVEDSKDSPDLEIMMRRMEEMEKYQESVRQRYNKIAYADPRLWMQEENNDQKISAISEKPLSPHPIRITKTVDRKDPAVNIMLERPCNGNSLDESVGTEEGSEKREAPLLSLAEDSQQKEGRAPLFVPPGMQHSIGDYCSRFEQYLRIISHEAVGSFNPWLIAESFSEELVDEALGAVAAELQDMCEDYAEAVFTSEFLEAAT |
| binds | CEP131 (protein, UniProt Q9UPN4 1-1083) MKGTRAIGSVPERSPAGVDLSLTGLPPPVSRRPGSAATTKPIVRSVSVVTGSEQKRKVLEATGPGGSQAINNLRRSNSTTQVSQPRSGSPRPTEPTDFLMLFEGSPSGKKRPASLSTAPSEKGATWNVLDDQPRGFTLPSNARSSSALDSPAGPRRKECTVALAPNFTANNRSNKGAVGNCVTTMVHNRYTPSERAPPLKSSNQTAPSLNNIIKAATCEGSESSGFGKLPKNVSSATHSARNNTGGSTGLPRRKEVTEEEAERFIHQVNQATVTIQRWYRHQVQRRGAGAARLEHLLQAKREEQRQRSGEGTLLDLHQQKEAARRKAREEKARQARRAAIQELQQKRALRAQKASTAERGPPENPRETRVPGMRQPAQELSPTPGGTAHQALKANNTGGGLPAAGPGDRCLPTSDSSPEPQQPPEDRTQDVLAQDAAGDNLEMMAPSRGSAKSRGPLEELLHTLQLLEKEPDVLPRPRTHHRGRYAWASEVTTEDDASSLTADNLEKFGKLSAFPEPPEDGTLLSEAKLQSIMSFLDEMEKSGQDQLDSQQEGWVPEAGPGPLELGSEVSTSVMRLKLEVEEKKQAMLLLQRALAQQRDLTARRVKETEKALSRQLQRQREHYEATIQRHLAFIDQLIEDKKVLSEKCEAVVAELKQEDQRCTERVAQAQAQHELEIKKLKELMSATEKARREKWISEKTKKIKEVTVRGLEPEIQKLIARHKQEVRRLKSLHEAELLQSDERASQRCLRQAEELREQLEREKEALGQQERERARQRFQQHLEQEQWALQQQRQRLYSEVAEERERLGQQAARQRAELEELRQQLEESSSALTRALRAEFEKGREEQERRHQMELNTLKQQLELERQAWEAGRTRKEEAWLLNREQELREEIRKGRDKEIELVIHRLEADMALAKEESEKAAESRIKRLRDKYEAELSELEQSERKLQERCSELKGQLGEAEGENLRLQGLVRQKERALEDAQAVNEQLSSERSNLAQVIRQEFEDRLAASEEETRQAKAELATLQARQQLELEEVHRRVKTALARKEEAVSSLRTQHEAAVKRADHLEELLEQHRRPTPSTK |
